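Whole-parasite assay of Trypanosoma brucei over 72 hours; the read-out is not stated. Compounds at 30 µM. Direction is inferred from retests: higher values go with stronger inhibition. Values scatter widely below zero; nearly all retest evidence comes from the higher of the two concentrations used. Size under these conditions: about 64,000 compounds, about 940 of them at 50% or above in at least one test.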

Each number is a percent effect as filed. The controls that fix the scale are not given in the record; negative values are as filed. Compounds were drawn at random from those tested, without regard to their results.

Compound	Percent Effect
COC(=O)CC1CCN(C(=O)c2ccc(C)cc2)CC1	-60.35
[H][C@@]12CN(C(C)=O)C[C@]1(C(=O)NC)CCC21CCN(S(=O)(=O)C2CC2)CC1	-77.86
O=C(CCc1cc(Cl)no1)N1CCCCC1CCn1ccnc1 (stereo unspecified)	-18.79
O=C1CCCN1CC1CN(C(=O)N2CCOCC2)Cc2nccn2C1 (stereo unspecified)	-66.68
[H][C@]12CCC[C@@]1(COCc1ccccn1)CN(C(=O)C1CCOCC1)C2	0.9681
C[C@@H](O)CNC(=O)c1nc(Cc2c(Cl)cccc2Cl)no1	6.468
COCCn1ccnc1CN1CCc2[nH]cnc2C1c1cccc(O)c1 (stereo unspecified)	-40.89
COc1nc2c(cc1C(=O)NCCc1nc(C)c(C(=O)O)s1)CCC2	-32.05
CN(CC(=O)N(CCC#N)c1ccccc1)C1CCc2ccccc21 (stereo unspecified)	-35.56
O=C(CC1=CCCCC1)N1CCC(Cn2cc(CCO)nn2)CC1	-36.33
O=C(c1ccc(N2CCCC2)nn1)N1CCCc2cc(F)c(F)cc21	-39.19
CCCc1ncc(C(=O)N2CCOc3ncccc32)s1	-31.39
CCN(CC)Cc1cc(C(=O)N2CC(C)(C)[C@@](C)(O)C2)c(C)o1	-22.59
NC[C@H]1CC[C@H](C(NC(=O)c2ccccc2)c2ccccn2)CC1 (stereo partly specified)	6.4
CCc1ccc(CNc2ccccc2CN2CCC(O)CC2)o1	-9.916
Cn1ccc(C(=O)N2CCCC2c2ccc3c(c2)OCCO3)cc1=O (stereo unspecified)	-29.23
O=C(O)C(F)(F)F.[H][C@@]12CCC(=O)N(c3cnn(C)c3)[C@]1([H])CCN2Cc1ccc(OC)cc1	-15.22
Cc1cc(N2CCCC2)nc(CNS(=O)(=O)Cc2ccccc2)n1	99.66
CCNC(=O)C1CCCN(C(=O)Nc2cc(C#N)ccc2OCC)C1 (stereo unspecified)	4.357
CN(Cc1ccoc1)c1ccc(-c2nccn2C)nn1	-118.1
Cc1cccn2cc(CN3CCCC(c4ccn[nH]4)C3)nc12 (stereo unspecified)	-21.98
CCc1cc(=O)[nH]c(NC2CCN(S(=O)(=O)c3ccccc3)CC2)n1	5.102
CC(C)(C)C(NC(=O)CCCS(C)(=O)=O)c1ccc(F)cc1F (stereo unspecified)	-25.5
CCc1cccc(N2CCC(NC(=O)c3ccco3)CC2)c1	-4.063
Cc1nc(CN2CCCC(NCc3c(C)nc4sccn34)C2)no1 (stereo unspecified)	-17.58
O=C(O)C(F)(F)F.[H][C@@]12CN(CC3CC3)C[C@]1([H])[C@H](OC)CCN2C(=O)c1ccsc1	-6.975
CN(CC(=O)c1ccc2[nH]c(=O)[nH]c2c1)Cc1ccc2c(c1)OCO2	2.207
O=C(NN1CCCc2ccccc21)c1c[nH]c(=O)[nH]1	-26.43
CC(=O)OCC1CCCCN1C(=O)c1ccc(Cn2ccnc2)o1 (stereo unspecified)	-36.54
COc1ccc(-c2nc(CCNC(=O)NCC3CCOC3)co2)cc1 (stereo unspecified)	-5.849
Cc1noc(C2CCN(C(=O)CCNc3ncccn3)CC2)n1	-33.33
CC(c1ccncc1)N(C)C(=O)NCCOc1ccc(C#N)cc1 (stereo unspecified)	-18.03
Cc1noc(C(C)N(C)Cc2ccco2)n1 (stereo unspecified)	-6.276
Cc1cnn(C2CCCN(C(=O)c3cnc4ccccc4n3)C2)c1 (stereo unspecified)	10.36
CN1CCC2(CCN(CC3CCOCC3)CC2)C1=O.O=C(O)C(F)(F)F	-46.51
O=C(N[C@@H]1CCC[C@@H](N2CCCC2)[C@@H]1O)c1cnn2cccnc12	6.514
Cc1nc(C)n(CC2CN(Cc3nccs3)Cc3nccn3C2)n1.O=C(O)C(F)(F)F (stereo unspecified)	-188.4
Cc1c(C(=O)N2CCC3(CCC(=O)N(CCN(C)C)C3)CC2)ccn1C	-5.513
[H][C@@]12CN(C(=O)c3cc(C)on3)C[C@@]1([H])N(CC1CC1)C(=O)CO2	-35.88
CCC(NC(=O)C(C)C)c1ccccc1C (stereo unspecified)	-17.89
COCCn1ccnc1C1CCN(C(=O)c2cccc(COC)n2)CC1	-42.07
O=C(COc1ccccc1)NCC1CCN(Cc2ccsc2)CC1	-6.194
CC(C)Cc1noc(CC2CCS(=O)(=O)C2)n1 (stereo unspecified)	-49.04
CC1COCCN1C(=O)c1cccc(OCc2cscn2)c1 (stereo unspecified)	-9.461
O=C(CCN1C(=O)CCC1=O)Nc1ccc(Cl)cc1	-6.895

Repeated from the top, 3 entries:

| Compound | Percent Effect |
|---|---|
| `COC(=O)CC1CCN(C(=O)c2ccc(C)cc2)CC1` | -60.35 |
| `[H][C@@]12CN(C(C)=O)C[C@]1(C(=O)NC)CCC21CCN(S(=O)(=O)C2CC2)CC1` | -77.86 |
| `O=C(CCc1cc(Cl)no1)N1CCCCC1CCn1ccnc1` (stereo unspecified) | -18.79 |

From ChEMBL document CHEMBL3988442, “University of Dundee, Small-Polar-MMV Screening Library” (2021).